Data published in the supplement of paper PMC10331698.
± gives the standard deviation of the averaged measurements. Most entries show no effect beyond the scatter of the controls.

Key:
Assay in all cases: level (log10 ratio to DMSO vehicle control); higher = higher biomarker level / cell amount than vehicle control
[1] = compound: CC(C)(C)C(=O)CC(=O)C(F)(F)C(F)(F)C(F)(F)F [(Heptafluorobutanoyl)pivaloylmethane]; conditions: 2200 nM; in DMSO
Protocol: (§1)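 BioMAP Diversity Plus panel of 12 human primary cell co-culture systems (3C, 4H, LPS, SAg, BT, BF4T, BE3C, CASM3C, HDF3CGF, KF3CT, MyoF, Mphg). Compounds were added 1 h before stimulation and left for 24 h (MyoF 48 h; BT 72 h for soluble read-outs or 6 d for IgG). Biomarkers were read by ELISA, cytotoxicity by SRB, PBMC viability and proliferation by Alamar Blue. Each well value was divided by the mean of 8 DMSO control wells on the same plate and log10 transformed; duplicate blinded samples were tested at 4 concentrations.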

1-(Perfluorohexyl)octane = compound: CCCCCCCCC(F)(F)C(F)(F)C(F)(F)C(F)(F)C(F)(F)C(F)(F)F [1-(Perfluorohexyl)octane]; conditions: in DMSO
Protocol: as §1

[2] = compound: CCN(CCO)S(=O)(=O)C(F)(F)C(F)(F)C(F)(F)C(F)(F)C(F)(F)C(F)(F)C(F)(F)C(F)(F)F [N-Ethyl-N-(2-hydroxyethyl)perfluorooctanesulfonamide]; conditions: in DMSO
Protocol: as §1

[3] = compound: CN(C(=O)C(F)(F)C(F)(F)C(F)(F)F)[Si](C)(C)C [N-Methyl-N-trimethylsilylheptafluorobutyramide]; conditions: 2200 nM; in DMSO
Protocol: as §1

[4] = compound: Cc1ccc(S(=O)(=O)OCC(F)(F)C(F)(F)C(F)(F)C(F)(F)C(F)(F)C(F)F)cc1 [1H,1H,7H-Perfluoroheptyl 4-methylbenzenesulfonate]; conditions: 2200 nM; in DMSO
Protocol: as §1

[5] = compound: FC(F)(F)C(F)(F)C(F)(F)C(F)(F)C(F)(F)C(F)(F)CC1CO1 [3-(Perfluorohexyl)-1,2-epoxypropane]; conditions: 2200 nM; in DMSO
Protocol: as §1

Heptafluorobutyramide = compound: NC(=O)C(F)(F)C(F)(F)C(F)(F)F [Heptafluorobutyramide]; conditions: 2200 nM; in DMSO
Protocol: as §1

[6] = compound: NCC(F)(F)C(F)(F)C(F)(F)C(F)(F)C(F)(F)C(F)(F)C(F)(F)F [1H,1H-Perfluorooctylamine]; conditions: 2200 nM; in DMSO
Protocol: as §1

Octafluoroadipic acid = compound: O=C(O)C(F)(F)C(F)(F)C(F)(F)C(F)(F)C(=O)O [Octafluoroadipic acid]; conditions: 2200 nM; in DMSO
Protocol: as §1

[7] = compound: O=C(O)C(F)(F)C(F)(F)C(F)(F)C(F)(F)C(F)(F)C(F)(F)C(F)(F)C(F)(F)C(F)(F)C(F)F [11-H-Perfluoroundecanoic acid]; conditions: 2200 nM; in DMSO
Protocol: as §1

Perfluoroheptanoic acid = compound: O=C(O)C(F)(F)C(F)(F)C(F)(F)C(F)(F)C(F)(F)C(F)(F)F [Perfluoroheptanoic acid]; conditions: in DMSO
Protocol: as §1

Perfluoropentanoic acid = compound: O=C(O)C(F)(F)C(F)(F)C(F)(F)C(F)(F)F [Perfluoropentanoic acid]; conditions: in DMSO
Protocol: as §1

[8] = compound: O=C(O)C(F)(F)C(F)(F)C(F)(F)OC(F)(F)F [Perfluoro(4-methoxybutanoic) acid]; conditions: 2200 nM; in DMSO
Protocol: as §1

[9] = compound: O=S(=O)(O)CCC(F)(F)C(F)(F)C(F)(F)C(F)(F)C(F)(F)C(F)(F)C(F)(F)C(F)(F)F [8:2 Fluorotelomer sulfonic acid]; conditions: in DMSO
Protocol: as §1

1H,1H-Heptafluorobutanol = compound: OCC(F)(F)C(F)(F)C(F)(F)F [1H,1H-Heptafluorobutanol]; conditions: 2200 nM; in DMSO
Protocol: as §1

[10] = compound: OCCC(F)(F)C(F)(F)C(F)(F)C(F)(F)C(F)(F)C(F)(F)F [6:2 Fluorotelomer alcohol]; conditions: 2200 nM; in DMSO
Protocol: as §1

| Test System | level (log10) [1] | level (log10) (1-(Perfluorohexyl)octane; 740 nM) | level (log10) (1-(Perfluorohexyl)octane; 2200 nM) | level (log10) ([2]; 2200 nM) | level (log10) ([2]; 6700 nM) | level (log10) ([2]; 20000 nM) | level (log10) [3] | level (log10) [4] | level (log10) [5] | level (log10) (Heptafluorobutyramide) | level (log10) [6] | level (log10) (Octafluoroadipic acid) | level (log10) [7] | level (log10) (Perfluoroheptanoic acid; 2200 nM) | level (log10) (Perfluoroheptanoic acid; 6700 nM) | level (log10) (Perfluoroheptanoic acid; 20000 nM) | level (log10) (Perfluoroheptanoic acid; 60000 nM) | level (log10) (Perfluoropentanoic acid; 2200 nM) | level (log10) (Perfluoropentanoic acid; 6700 nM) | level (log10) (Perfluoropentanoic acid; 20000 nM) | level (log10) (Perfluoropentanoic acid; 60000 nM) | level (log10) [8] | level (log10) ([9]; 2200 nM) | level (log10) ([9]; 6700 nM) | level (log10) ([9]; 20000 nM) | level (log10) ([9]; 60000 nM) | level (log10) (1H,1H-Heptafluorobutanol) | level (log10) [10] |
| --- | --- | --- | --- | --- | --- | --- | --- | --- | --- | --- | --- | --- | --- | --- | --- | --- | --- | --- | --- | --- | --- | --- | --- | --- | --- | --- | --- | --- |
| 3C:HLA-DR | 0.0065 ± 0.018 | 0.011 ± 0.016 | 0.011 ± 0.0099 | 0.0035 ± 0.015 | 0.013 ± 0.025 | -0.0625 ± 0.016 | 0.0095 ± 0.0035 | 0.0085 ± 0.023 | 0.021 | -0.003 ± 0.0014 | 0.0195 ± 0.052 | 0.008 ± 0.021 | 0.0205 ± 0.0035 | 0.032 ± 0.0028 | 0.006 ± 0.017 | 0.004 ± 0.013 | 0.034 ± 0.047 | 0.006 ± 0.0028 | -0.0075 ± 0.0035 | 0.0015 ± 0.021 | 0.018 ± 0.037 | 0.006 ± 0.0028 | -0.0045 ± 0.012 | -0.0155 ± 0.012 | -0.011 ± 0.0071 | -0.011 ± 0.0085 | 0.0015 ± 0.021 | 0.028 ± 0.017 |
| SAg:CD62E/E-Selectin | -0.013 ± 0.017 | -0.003 ± 0.0085 | 0 ± 0.0071 | -0.0035 ± 0.0021 | 0.0625 ± 0.013 | 0.079 ± 0.016 | -0.0005 ± 0.025 | 0.01 ± 0.014 | 0.0005 ± 0.037 | -0.002 ± 0.013 | 0.002 ± 0.062 | 0 ± 0.038 | -0.002 ± 0.047 | 0.0135 ± 0.0021 | -0.025 ± 0.0085 | 0.011 | 0.008 ± 0.013 | -0.0035 ± 0.013 | 0.0005 ± 0.0064 | -0.012 ± 0.013 | 0.0195 ± 0.025 | 0.009 ± 0.0071 | 0.018 ± 0.042 | 0.0085 ± 0.042 | 0.0465 ± 0.013 | 0.109 ± 0.0042 | 0.0075 ± 0.035 | 0.0055 ± 0.0064 |
| lMphg:CD69 | -0.0095 ± 0.021 | -0.0475 ± 0.037 | -0.044 ± 0.054 | -0.0095 ± 0.035 | -0.0715 ± 0.012 | -0.129 ± 0.0099 | 0 ± 0.02 | -0.035 ± 0.033 | -0.0075 ± 0.032 | -0.012 ± 0.027 | 0 ± 0.011 | -0.0145 ± 0.094 | -0.0405 ± 0.028 | -0.0045 ± 0.042 | -0.019 ± 0.038 | -0.021 ± 0.041 | -0.0205 ± 0.064 | -0.008 ± 0.028 | -0.0315 ± 0.0092 | -0.0525 ± 0.013 | 0.0175 ± 0.077 | 0.0425 ± 0.05 | -0.0365 ± 0.036 | -0.0695 ± 0.023 | -0.059 ± 0.0028 | -0.173 ± 0.025 | -0.045 ± 0.044 | -0.0225 ± 0.081 |
| MyoF:PAI-I | -0.002 ± 0.013 | 0.0035 ± 0.00071 | 0.0015 ± 0.0035 | 0.0035 ± 0.005 | -0.0065 ± 0.0064 | -0.0085 ± 0.018 | 0.002 ± 0.028 | 0 ± 0.0042 | 0.01 ± 0.024 | 0.0005 ± 0.013 | -0.0065 ± 0.021 | -0.0055 ± 0.015 | 0.015 ± 0.021 | 0.006 ± 0.021 | 0 ± 0.016 | -0.0215 ± 0.023 | 0.0025 ± 0.018 | -0.005 ± 0.0014 | -0.0035 ± 0.00071 | 0.005 ± 0.0071 | 0.0075 ± 0.0021 | -0.006 ± 0.02 | 0.0055 ± 0.0035 | -0.008 ± 0.011 | -0.009 ± 0.0042 | 0.0185 ± 0.019 | 0.01 ± 0.0057 | -0.0005 ± 0.0035 |
